Holding throughout (assay): co-IP; GFP-Trap agarose on 20 mg total protein extract of 14- to 15-day-old Arabidopsis seedlings co-expressing the two tagged proteins; 2 h at 4°C; washed with 50 mM Tris-HCl pH 7.5, 300 mM NaCl; western blot with anti-RFP, anti-HA and anti-GFP antibodies
Background: A western blot detects proteins with antibodies after separation by electrophoresis.

Sequences of proteins named here, by UniProt entry; tags and fusion partners are left off. A change or cut given only in a name is not applied to a line headed by its entry.
UniProt Q8W5S1: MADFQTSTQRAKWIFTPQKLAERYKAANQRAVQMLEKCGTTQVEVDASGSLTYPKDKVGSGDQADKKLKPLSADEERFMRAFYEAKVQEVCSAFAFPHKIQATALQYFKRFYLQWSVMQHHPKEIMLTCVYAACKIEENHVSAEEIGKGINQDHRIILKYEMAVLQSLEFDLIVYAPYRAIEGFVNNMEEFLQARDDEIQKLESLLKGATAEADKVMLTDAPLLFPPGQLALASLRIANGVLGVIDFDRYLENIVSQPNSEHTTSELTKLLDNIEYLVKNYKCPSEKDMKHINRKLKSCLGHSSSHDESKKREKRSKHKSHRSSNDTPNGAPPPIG

For experiment [1], the target named is T1, CDKD;1:GFP (CYCLIN-… KINASE D;1 with C-terminal GFP) (Arabidopsis thaliana) (UniProt Q9C9U2).
T1 sequence: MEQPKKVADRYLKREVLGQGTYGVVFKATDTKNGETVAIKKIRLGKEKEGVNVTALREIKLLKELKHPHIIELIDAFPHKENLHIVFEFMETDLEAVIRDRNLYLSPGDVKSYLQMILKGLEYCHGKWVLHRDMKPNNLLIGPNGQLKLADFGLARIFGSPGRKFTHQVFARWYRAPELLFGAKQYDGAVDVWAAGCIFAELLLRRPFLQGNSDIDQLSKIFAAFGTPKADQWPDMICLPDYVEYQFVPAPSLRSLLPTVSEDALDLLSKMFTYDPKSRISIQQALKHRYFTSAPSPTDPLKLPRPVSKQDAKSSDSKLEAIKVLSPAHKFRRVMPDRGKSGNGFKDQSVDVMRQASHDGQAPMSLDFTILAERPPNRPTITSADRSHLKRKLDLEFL

Experiment [2] deals with T2, CDKD;2:GFP–PIPL (CYCLIN-… KINASE D;2 with C-terminal GFP and PIPL tag) (Arabidopsis thaliana) (UniProt Q9C9M7).
T2 sequence: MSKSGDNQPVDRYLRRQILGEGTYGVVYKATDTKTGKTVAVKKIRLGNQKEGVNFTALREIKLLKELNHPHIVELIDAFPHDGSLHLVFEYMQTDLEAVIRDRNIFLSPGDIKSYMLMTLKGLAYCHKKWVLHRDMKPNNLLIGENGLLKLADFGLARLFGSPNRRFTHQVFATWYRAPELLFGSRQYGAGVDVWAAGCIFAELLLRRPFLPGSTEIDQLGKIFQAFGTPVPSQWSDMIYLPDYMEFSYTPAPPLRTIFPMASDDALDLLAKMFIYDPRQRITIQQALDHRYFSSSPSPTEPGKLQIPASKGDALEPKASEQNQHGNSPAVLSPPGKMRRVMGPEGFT

The target in experiment [3] is T3, CDKD;3:GFP (CYCLIN-… KINASE D;3 with C-terminal GFP) (Arabidopsis thaliana) (UniProt Q9LMT0).
T3 sequence: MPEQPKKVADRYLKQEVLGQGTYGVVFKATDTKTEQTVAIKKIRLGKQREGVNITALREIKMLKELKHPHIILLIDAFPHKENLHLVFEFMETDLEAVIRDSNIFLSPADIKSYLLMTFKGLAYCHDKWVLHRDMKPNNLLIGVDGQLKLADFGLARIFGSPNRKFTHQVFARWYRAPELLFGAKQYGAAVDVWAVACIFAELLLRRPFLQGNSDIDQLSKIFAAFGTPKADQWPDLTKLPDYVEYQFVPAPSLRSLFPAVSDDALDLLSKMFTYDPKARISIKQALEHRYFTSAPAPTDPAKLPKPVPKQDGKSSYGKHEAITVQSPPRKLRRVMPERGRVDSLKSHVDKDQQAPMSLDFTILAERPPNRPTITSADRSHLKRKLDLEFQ

Experiment [4] addresses T4, CDKF;1:GFP–PIPL (CDKD-activating kinase CDKF;1 with C-terminal GFP and PIPL tag) (Arabidopsis thaliana) (UniProt O80345).
T4 sequence: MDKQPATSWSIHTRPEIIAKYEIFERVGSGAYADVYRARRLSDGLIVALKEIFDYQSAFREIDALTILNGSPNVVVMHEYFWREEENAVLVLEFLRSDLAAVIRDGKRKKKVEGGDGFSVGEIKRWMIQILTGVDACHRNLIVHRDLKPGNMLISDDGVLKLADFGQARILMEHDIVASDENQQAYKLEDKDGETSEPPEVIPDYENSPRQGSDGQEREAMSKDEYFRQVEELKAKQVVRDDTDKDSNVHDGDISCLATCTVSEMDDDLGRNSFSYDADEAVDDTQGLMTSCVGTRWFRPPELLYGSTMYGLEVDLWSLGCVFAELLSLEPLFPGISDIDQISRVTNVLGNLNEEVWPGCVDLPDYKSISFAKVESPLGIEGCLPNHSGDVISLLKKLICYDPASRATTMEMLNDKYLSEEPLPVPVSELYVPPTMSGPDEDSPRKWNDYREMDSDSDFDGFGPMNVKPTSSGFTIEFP

No constants are given. Whether binding was seen depends on the method and setting. In cells and extracts the contact can be indirect. For some of these results: A result given as binding can be weak or reduced; the word gives no strength. Sequences can lack the tags named with a protein.

Regarding “CYCH:mCherry (CYCLIN H with C-terminal mCherry) (from UniProt Q8W5S1)”, the binding entry in experiment [1] is given as “binds”; in experiment [2], “binds”; in experiment [3], “binds”; in experiment [4], “no binding”.

Values taken from PMC6852550.
